Source: US7018802B2, “Electrochemiluminescent enzyme immunoassay” (BioVeris Corporation, priority 1995, dated 2006)

What was measured:
[1] = ECL assay before and after NaOH (base) hydrolysis; format: physicochemical; conditions: 50 mM NaOH
[2] = ECL lower limit of detection of β-lactam hydrolysis; conditions: for average instrument reading, unhydrolyzed substance / instrument reading, hydrolyzed substance: at the lower limit of detection, 50 nM
[3] = ECL change on Ru-APA hydrolysis compared to 6-APA standard curve
[4] = 23.0 μM, 6-APA in equimolar mixture with Ru(bpy)3^+2 (nonconjugated), FIG. 11
[5] = 30 minute, 30 μM, ampicillin in equimolar mixture with Ru(bpy)3^+2 (nonconjugated), FIG. 8
[6] = FIG. 10 / FIG. 12, ampicillin unconjugated

CC1(C)S[C@@H]2[C@H](N)C(=O)N2[C@H]1C(=O)O [6-APA, 6-aminopenicillanic acid, reference compound]
ECL increase upon base hydrolysis [1, 4]: 1.9 fold

CC1(C)S[C@@H]2[C@H](NC(=O)[C@H](N)c3ccccc3)C(=O)N2[C@H]1C(=O)O [ampicillin, reference compound]
ECL increase upon base hydrolysis [1, 5]: 1.5 fold
lower limit of detection of hydrolysis by ECL [2, 6]: 5000 nM
lower limit of detection of hydrolysis by ECL ([2]; unconjugated, in the presence of 10 μM Ru(bpy)3^+2): 50000 nM

Ru(bpy)3^+2-labeled 6-aminopenicillanic acid [Ru-APA]
ECL increase upon base hydrolysis [1, 4]: 13.2 fold
lower limit of detection of hydrolysis by ECL [2, 6]: 50 nM
average instrument reading, unhydrolyzed substance [2]: −648 relative ECL counts
instrument reading, hydrolyzed substance [2]: −33 relative ECL counts
increase in the ECL change during hydrolysis through conjugation, versus nonconjugated 6-APA ([3]; 10 μM Ru-APA versus 6-APA plus 10 μM Ru(bpy)3^+2): 125 fold
concentration of free 6-APA (nonconjugated) whose hydrolysis gives the equivalent ECL change ([3]; 10 μM Ru-APA, 6-APA in the presence of 10 μM Ru(bpy)3^+2, extrapolation of standard curve, FIG. 13): 1250 µM

Ru(bpy)3^+2-labeled ampicillin [Ru-AMP]
ECL increase upon base hydrolysis [1, 5]: 5.2 fold
lower limit of detection of hydrolysis by ECL [2, 6]: 50 nM
average instrument reading, unhydrolyzed substance [2]: −152 relative ECL counts
instrument reading, hydrolyzed substance [2]: 464 relative ECL counts
